Test results taken from patent publication US9687561 (dated 2017).
One purity is given for all peptides; the source may state it once.

Experiment: general procedure: Fmoc solid-phase peptide synthesis; rink amide methylbenzhydrylamine resin; HCTU
Conditions: conjugation step; for final HPLC purity: UPLC

| Substance | conjugation yield [%] | final HPLC purity [%] |
| --- | --- | --- |
| azido-PAMAM(1)-(SSCysAn2)4 | 43 | 95 |
| azido-PAMAM(1)-(SMaI-An2)4 | 20 | 95 |
| Propagyl-PAMAM(1)-(SSCysAn2)4 | 65 | 95 |
| propagyl-PAMAM(1)-(SMaI-An2)4 | 21 | 95 |
| azido-PAMAM(0)-(SSCysAn2)2 | 43 | 95 |
| propagyl-PAMAM(2)-(SSCysAn2)8 | 30 | 95 |
